The values below come from paper PMC2946933.

Sequences of proteins named here, by UniProt entry; tags and fusion partners are left off. A change or cut given only in a name is not applied to a line headed by its entry.
UniProt P0A6X3: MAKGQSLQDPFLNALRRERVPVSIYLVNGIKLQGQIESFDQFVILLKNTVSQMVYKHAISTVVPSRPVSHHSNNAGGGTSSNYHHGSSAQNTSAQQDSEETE

In this series the target is Hfq wild type (Escherichia coli?) (UniProt P0A6X3). The series is described as follows: SHAPE footprinting. The settings on record: 1 uM Hfq, regions R1, R2, R3; Tb footprinting: 50 mM Tris-HCl pH 8.0, 100 mM NaCl, 10 mM MgCl2; recombinant protein; probe letters rebuilt from the primers and the genome.

The exact form of at least one protein or probe is not confirmed.

Consider “GGCCUUCGGGCCAAGCAGCGUUACAUUCCCAUCCACUGGGGAAAGACGCGGCGCUGAUUGGUGAAGUGGUGGAACGUAAAGGUGUUCGUCUUGCCGGUCUGUAUGGCGUGAAACGAACCCUCGAUUUACCACACGCCGAACCGCUUCCGCGUAUAUGCUAAUAAAAUUCUAAAUCUCCUAUAGUUAGUCAAUGACCUUUUGCACCGCUUUGCGGUGCUUUCCUGGAAGAACAAAAUGUCAUAUACACCGAUGAGUGAUCUCGGACAACAAGGGUUGUUCGACAUCACUCGGACAUCGAUCCGGUUCGCCGGAUCCAAAUCGGGCUUCGGUCCGGUUCAAUAUUGGAUCCGCUCGG [fhlA220 mRNA with SHAPE structure cassette]”, for which the binding result is “binds”.
